{
  "source": "patent US6555139B2",
  "about": "“Preparation of micron-size pharmaceutical particles by microfluidization” (Wockhardt Europe Limited, priority 1999, dated 2003)",
  "origin": "cited, not measured here",
  "settings": "from the jejunum; cited from earlier work",
  "data": [
    {"smiles": "COC(=O)C1=C(C)NC(C)=C(C(=O)OC)C1c1ccccc1[N+](=O)[O-]", "note": "[Nifedipine, nifedipine]", "values": [
      {"measurement": "absorption rate, t80%", "value": "less than 0.7 hours"}
    ]}
  ]
}
